Data as given in PubChem BioAssay AID1117269 (University of Michigan, 2014)

Purpose: 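Which kinase knockdowns increase BTR reporter light after TGF-beta stimulation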 (primary screen)
Cells: human A549 lung cancer and 1833 breast cancer (MDA-MB-231-derived) cell lines carrying a stable BTR luciferase reporter
Reagent: siRNA pool against human genes
Duration: 72 h after transfection, then 1 h TGF-beta before the read
Conditions: TGF-beta 10 ng/mL added one hour before luciferin and read-out
Measured: 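BTR reporter bioluminescence as fold change relative to non-targeting siRNA, averaging triplicates per line; knockdown for 72 h, then TGF-beta at 10 ng/mL 1 h prior to reading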
Direction: fold over scrambled siRNA, A549 and fold over scrambled siRNA, 1833: higher = more reporter light, weaker TGF-beta receptor signalling
Call rule: 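Hit in either line counts as active; per-line hits lie above an upper limit from quartiles of averaged log fold values, in plate and screen-wide analyses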
Meaning of the calls: active = hit in at least one line; inactive = hit in neither line
The whole screen tested 714 reagents; below is a random part of them. 49 of all reagents (6.9%) were called active. 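Active means a hit in at least one line; per-line hit columns show which; some siRNA pools appear more than once.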 Reagents against one gene are numbered here. The record does not give: the amount of reagent.

For TPD52L3, the values are fold over scrambled siRNA, A549 = 2; fold over scrambled siRNA, 1833 = 42; hit in A549 = not a hit in A549; hit in 1833 = hit in 1833.
MAPKAPK2 gave fold over scrambled siRNA, A549 = 0.788; fold over scrambled siRNA, 1833 = 1.36; hit in A549 = not a hit in A549; hit in 1833 = not a hit in 1833; inactive.
EFNA5 gave fold over scrambled siRNA, A549 = 1.52; fold over scrambled siRNA, 1833 = 1.79; hit in A549 = not a hit in A549; hit in 1833 = not a hit in 1833; inactive.
Against RIOK2, the values are fold over scrambled siRNA, A549 = 2.48; fold over scrambled siRNA, 1833 = 5.2; hit in A549 = not a hit in A549; hit in 1833 = not a hit in 1833; inactive.
ALPK1 showed fold over scrambled siRNA, A549 = 1.07; fold over scrambled siRNA, 1833 = 4.3; hit in A549 = not a hit in A549; hit in 1833 = not a hit in 1833; inactive.
After knock-down of TRPM6, the screen gave fold over scrambled siRNA, A549 = 3.02; fold over scrambled siRNA, 1833 = 2.07; hit in A549 = not a hit in A549; hit in 1833 = not a hit in 1833; inactive.
After knock-down of PHKA1, the record shows fold over scrambled siRNA, A549 = 0.942; fold over scrambled siRNA, 1833 = 2.21; hit in A549 = not a hit in A549; hit in 1833 = not a hit in 1833; inactive.
Depletion of CDK10 came out at: fold over scrambled siRNA, A549 = 1.03; fold over scrambled siRNA, 1833 = 9.83; hit in A549 = not a hit in A549; hit in 1833 = not a hit in 1833; inactive.
With knock-down of MPP3, the screen gave fold over scrambled siRNA, A549 = 0.952; fold over scrambled siRNA, 1833 = 0.905; hit in A549 = not a hit in A549; hit in 1833 = not a hit in 1833; inactive.
EFNA4 scored fold over scrambled siRNA, A549 = 1.02; fold over scrambled siRNA, 1833 = 0.619; hit in A549 = not a hit in A549; hit in 1833 = not a hit in 1833; inactive.
Against NADK, the entry reads fold over scrambled siRNA, A549 = 1.46; fold over scrambled siRNA, 1833 = 5.67; hit in A549 = not a hit in A549; hit in 1833 = not a hit in 1833; inactive.
After knock-down of ILK #1, the screen gave fold over scrambled siRNA, A549 = 1.58; fold over scrambled siRNA, 1833 = 5.03; hit in A549 = not a hit in A549; hit in 1833 = not a hit in 1833; inactive.
For ILK #2 the deposit lists fold over scrambled siRNA, A549 = 1.24; fold over scrambled siRNA, 1833 = 3; hit in A549 = not a hit in A549; hit in 1833 = not a hit in 1833; inactive.
Against HCK the deposit lists fold over scrambled siRNA, A549 = 1.68; fold over scrambled siRNA, 1833 = 0.733; hit in A549 = not a hit in A549; hit in 1833 = not a hit in 1833; inactive.
Against NME6, the entry reads fold over scrambled siRNA, A549 = 0.882; fold over scrambled siRNA, 1833 = 1.04; hit in A549 = not a hit in A549; hit in 1833 = not a hit in 1833; inactive.
With knock-down of KIT, the record shows fold over scrambled siRNA, A549 = 2.11; fold over scrambled siRNA, 1833 = 1.4; hit in A549 = not a hit in A549; hit in 1833 = not a hit in 1833; inactive.
With knock-down of FYN, the record shows fold over scrambled siRNA, A549 = 2.17; fold over scrambled siRNA, 1833 = 8.04; hit in A549 = not a hit in A549; hit in 1833 = not a hit in 1833; inactive.
Against MAGI2 the deposit lists fold over scrambled siRNA, A549 = 2.02; fold over scrambled siRNA, 1833 = 1.95; hit in A549 = not a hit in A549; hit in 1833 = not a hit in 1833; inactive.
EPHB6 scored fold over scrambled siRNA, A549 = 1.54; fold over scrambled siRNA, 1833 = 11.5; hit in A549 = not a hit in A549; hit in 1833 = hit in 1833.
Silencing of RBKS gave: fold over scrambled siRNA, A549 = 1.42; fold over scrambled siRNA, 1833 = 2.9; hit in A549 = not a hit in A549; hit in 1833 = not a hit in 1833; inactive.
MPP2 scored fold over scrambled siRNA, A549 = 2.42; fold over scrambled siRNA, 1833 = 1.71; hit in A549 = not a hit in A549; hit in 1833 = not a hit in 1833; inactive.

Laid out differently: 2 of the entries above
{"gene knocked down": "NME6", "reagent": 1, "fold over scrambled siRNA, A549": 0.882, "fold over scrambled siRNA, 1833": 1.04, "hit in A549": "not a hit in A549", "hit in 1833": "not a hit in 1833", "Outcome": "inactive"}
{"gene knocked down": "KIT", "reagent": 1, "fold over scrambled siRNA, A549": 2.11, "fold over scrambled siRNA, 1833": 1.4, "hit in A549": "not a hit in A549", "hit in 1833": "not a hit in 1833", "Outcome": "inactive"}
